These are yes or no findings as the source states them, for the method shown. Some entries that bind do so weakly or less than the wild type.

This assay addresses T1, DR3 (Death Receptor 3) natively expressed on human TF-1 cells (human) (UniProt Q93038).
T1 sequence (looked up): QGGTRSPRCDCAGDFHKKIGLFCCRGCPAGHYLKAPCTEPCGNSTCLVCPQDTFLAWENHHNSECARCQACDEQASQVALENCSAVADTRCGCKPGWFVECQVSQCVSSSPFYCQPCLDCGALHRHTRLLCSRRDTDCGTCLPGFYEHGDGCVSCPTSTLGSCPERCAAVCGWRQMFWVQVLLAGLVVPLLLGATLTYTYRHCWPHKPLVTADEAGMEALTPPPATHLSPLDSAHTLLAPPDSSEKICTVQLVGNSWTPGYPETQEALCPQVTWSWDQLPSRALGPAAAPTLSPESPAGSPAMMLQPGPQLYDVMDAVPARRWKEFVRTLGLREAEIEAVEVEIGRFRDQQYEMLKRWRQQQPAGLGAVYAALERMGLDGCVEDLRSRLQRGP
As to the kind of experiment: TF-1 cell caspase activation assay.

B1: cynomolgus monkey TL1A protein (ligand)
chain: LKGQEFAPSHQQVYAPLRADGDKPRAHLTVVRQTPTQHLKNQFPALHWEHELGLAFTKNRMNYTNKFLLIPESGDYFVYSQVTFRGMTSECSEIRQAGRPNKPDSITVVITKVTDSYPEPTQLLMGTKSVCEVGSNWFQPIYLGAMFSLQEGDKLMVNVSDISLVDYTKEDKTFFGAFLL
On to B1, for which the binding entry is given as “binds”.
